# Data: PubChem BioAssay AID2685 (National Center for Advancing Translational Sciences (NCATS), 2010)
# In all, about 320,000 compounds went through this assay and about 2,100 (0.66%) were called active. Inconclusive results, whose numbers are uncertain, are shown with a selection of clear calls. Calls follow the shape of the dose curve; as a rule, active = well fitted inhibition curve with a large enough effect in the signal ratio, with a control signal flat (not every such curve was filed as active); inconclusive = small, poorly fitted or top-dose-only effect, or effect the other way, or a change in a side signal; inactive = flat fitted curve, though single readings scatter; the % refers to the signal ratio. Potencies of inconclusive entries are doubtful fits and often do not repeat.
# Experiment: qHTS Assay for Lipid Storage Modulators in Drosophila S3 Cells
# Settings: BODIPY lipid droplet fluorescence, 18-24 h, cells fed with added oleic acid; lipid storage change, negative = inhibition: at 46.1 µM (top of the series) unless noted
# Procedure, shortened: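 Drosophila S3 cells got compounds at several concentrations plus oleic acid (400 uM solution). Laser-scanning cytometry with 488 nm excitation read lipid droplets at 500-530 nm and cells at 575-640 nm. Percent activity was relative to 20 uM Triacsin C.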
# % is scaled to controls: 0 for no effect and ±100 for the full control effect; potency is read from the fitted curve at half-maximal effect.
Structure (SMILES),"lipid storage change, negative = inhibition",outcome,Potency
CN(C(=O)c1cccnc1)c1nnc(-c2cccnc2)s1,inactive: 12.5%,–,–
Cc1cccc(C(=O)Nc2c3c(nn2C(C)(C)C)CS(=O)(=O)C3)c1,–,inactive [at 46.1 µM],–
COc1cc(/C=C2\CC(C(C)(C)C)C/C(=C\c3cc(OC)c(OC)c(OC)c3)C2=O)cc(OC)c1OC (centres undefined),–,–,"inconclusive: 20.6 µM [falling, partial curve]"
CC(=O)NCCC(=O)Nc1cc(S(=O)(=O)N2CCOCC2)ccc1Oc1ccc(F)cc1,inconclusive,–,–
O=C(CCCn1c(=O)[nH]c2ccsc2c1=O)NC1CCCCC1,inconclusive: -14.4%,–,–
CCOC(=O)c1c(C=O)c2ccccc2n1CC,inconclusive: -6.16%,–,–
O=C(NCC1CCCO1)c1sc2cc(Cl)ccc2c1Cl (centres undefined),inconclusive: 33%,–,–
Nc1ccc(N=Nc2ccc(N)cc2)cc1,–,–,"inconclusive: 18.4 µM [rising, partial curve]"
COc1cc2c(cc1OC)CN(C(=O)c1ccc(S(=O)(=O)N3CCCCC3)cc1)CC2,inconclusive: -43%,–,–
COc1cc(/C=N/OCC(=O)NC23CC4CC(CC(C4)C2)C3)ccc1OCc1ccccc1,–,–,"inconclusive: 16.4 µM [falling, partial curve, poor fit]"
Cc1cc(C(=O)NN=C(Cc2ccccc2)Cc2ccccc2)c(C)o1,inconclusive: 11.9%,–,–
Cc1ccc(NC(=O)COC(=O)COc2cccc3c2OC(C)(C)C3)cc1C,inconclusive: 78.2%,–,–
O=C(CN1C(=O)COc2ccccc21)NCCN1CCC(Cc2ccccc2)CC1,–,–,"inconclusive: 32.6 µM [cytotoxic, single point]"
O=C(Nc1ccc(N2CCOCC2)cc1N1CCOCC1)c1ccc(Br)cc1,–,–,"inconclusive: 1.64 µM [cytotoxic, full curve]"
CCOC(=O)c1c(C)nn(Cc2cccc(Cl)c2)c1N,–,–,"inconclusive: 0.731 µM [rising, full curve]"
Cc1nonc1OCCCNc1ccc([N+](=O)[O-])cc1Cl,–,–,"inconclusive: 32.6 µM [falling, single point]"
Cc1ccc(C(C(=O)NC(C)(C)C)N(Cc2cccs2)C(=O)c2ccc3c(c2)OCCO3)cc1 (centres undefined),–,–,"inconclusive: 20.6 µM [falling, single point]"
Cc1cccc(C(=O)OC2CCN(C)CC2)c1,–,–,"inconclusive: 6.51 µM [falling, single point]"
CC(C)N1CCN(S(=O)(=O)c2ccccc2)CC1,inconclusive: 6.79%,–,–
CCOC(=O)c1c(Cc2ccccc2)c[nH]c1C,inconclusive: 11.9%,–,–

Structure (SMILES),"lipid storage change, negative = inhibition",outcome,Potency
CN(CCO)S(=O)(=O)c1ccc2c(c1)C(=NO)c1cc(S(=O)(=O)N(C)CCO)ccc1-2,inconclusive: 29.1%,–,–
O=C(CSc1ccc(F)cc1)NC(=O)NCc1ccccc1,inconclusive: -2.05%,–,–
CCOc1ccc(CCNC(=O)c2cc(S(=O)(=O)N3CCOCC3)ccc2C)cc1OCC,–,–,"inconclusive: 11.6 µM [activator, single point]"
CCN(CC)S(=O)(=O)c1cccc(-c2nc3n(n2)Cc2ccccc2-3)c1,inconclusive: 17.5%,–,–
O=C(NNC(=S)Nc1ccccc1C(F)(F)F)c1ccc(Br)o1,inconclusive: 14.5%,–,–
Cc1ccccc1N(CC(=O)NCCSC1CCCCC1)S(=O)(=O)c1ccccc1,inconclusive: -12.7%,–,–
O=C(Nc1ccc(C(=O)N2CCOCC2)cc1)c1ccc([N+](=O)[O-])cc1,inconclusive: 2.94%,–,–
CCCCCOC(=O)C1[C@H]2C(=O)N(CCCOC)C[C@]23C=C[C@H]1O3 (some centres undefined),–,–,"inconclusive: 6.51 µM [activator, partial curve, poor fit]"
CC(NC(=O)C1CCN(S(=O)(=O)c2ccc3nc4c(c(C(=O)O)c3c2)CCCC4)CC1)c1ccccc1 (centres undefined),–,–,"inconclusive: 2.06 µM [activator, partial curve]"
Cc1c(C(=O)Nc2ccc(Cl)cc2)c2ccccn2c1C(=O)c1ccc(F)cc1,inconclusive: -37.6%,–,–
Cc1ccc(NC(=O)COC(=O)C2(c3ccc(Cl)cc3)CCCC2)cc1,inconclusive: -23.3%,–,–
Cc1cccc(NC(=S)NNc2cccc(Cl)c2)c1,–,–,"inconclusive: 29.1 µM [falling, single point]"
COc1ccccc1C(=O)NC(CCSC)C(=O)N1CCN(C(C)=O)CC1 (centres undefined),inconclusive: 46.6%,–,–
O=C(CN1CCCCCC1)Nc1ccccc1F,inconclusive: -10%,–,–
O=C1C=CN(C(=O)Oc2ccccc2)CC1,inconclusive: -2.03%,–,–
CCOC(=O)c1ccc(NC(=O)Cn2nnc(-c3ccccc3C)n2)cc1,inconclusive: 107%,–,–
O=C(NCc1ccccc1Cl)C1CCC(=O)N(CCCN2CCCC2=O)C1 (centres undefined),inactive: -1.29%,–,–
Cc1ccc(OCC(=O)NCCCNC(=O)c2ccccn2)cc1C,inconclusive: -71.6%,–,–
CC(C)(C)c1ccc(NC(=O)Nc2ccc(F)cc2)cc1,inconclusive: -11%,–,–

# Of the compounds above, these contain an aryl methoxy group:
Structure (SMILES),"lipid storage change, negative = inhibition",outcome,Potency
COc1cc(/C=C2\CC(C(C)(C)C)C/C(=C\c3cc(OC)c(OC)c(OC)c3)C2=O)cc(OC)c1OC (centres undefined),–,–,"inconclusive: 20.6 µM [falling, partial curve]"
COc1cc2c(cc1OC)CN(C(=O)c1ccc(S(=O)(=O)N3CCCCC3)cc1)CC2,inconclusive: -43%,–,–
COc1cc(/C=N/OCC(=O)NC23CC4CC(CC(C4)C2)C3)ccc1OCc1ccccc1,–,–,"inconclusive: 16.4 µM [falling, partial curve, poor fit]"
COc1ccccc1C(=O)NC(CCSC)C(=O)N1CCN(C(C)=O)CC1 (centres undefined),inconclusive: 46.6%,–,–
